# Laboratory results reported in paper PMC7819943, “Rice protein-binding microarrays: a tool to detect cis-acting elements near promoter regions in rice”.
# The other results are listed elsewhere or left out.
# Molecular target: T1, OsSMF1 (Oryza sativa, UniProt Q6ZLB0 1-436)
# T1 sequence: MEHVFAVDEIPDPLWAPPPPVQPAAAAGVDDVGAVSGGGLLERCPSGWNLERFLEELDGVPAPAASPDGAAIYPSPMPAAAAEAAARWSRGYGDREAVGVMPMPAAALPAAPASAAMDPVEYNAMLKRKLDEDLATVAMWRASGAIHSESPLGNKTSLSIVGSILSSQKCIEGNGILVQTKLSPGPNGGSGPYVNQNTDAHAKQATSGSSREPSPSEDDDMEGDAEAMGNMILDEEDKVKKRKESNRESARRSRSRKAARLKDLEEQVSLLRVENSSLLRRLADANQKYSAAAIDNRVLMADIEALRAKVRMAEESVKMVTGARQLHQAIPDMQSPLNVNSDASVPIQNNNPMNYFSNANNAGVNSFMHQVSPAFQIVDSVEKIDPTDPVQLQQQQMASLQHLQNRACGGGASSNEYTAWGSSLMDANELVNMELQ
# Assay: protein-binding microarray (RPBM); PBS, 2% BSA, 51.3 ng/ul salmon testes DNA, 50 uM zinc acetate, 200 nM TF, 25 C, 1 h; high values mean tight binding
# Settings: protein: recombinant; tags: N-terminal polyhistidine and DsRed monomer fusion (pET32a); chain copies: 2; label: CyDye5-dUTP incorporated in the synthesized complementary strand; 3' TTTTT single-stranded linker to array surface; dsDNA, one strand shown
# How it was run: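 The binding signal is fluorescence intensity per feature, in arbitrary units, read on an Axon 4000B scanner. Polyhistidine- and DsRed-tagged transcription factors (N-terminal fusions) from E. coli BL21-CodonPlus were purified on Ni–NTA and applied at 200 nM for 1 h at 25 °C to a double-stranded, BSA-blocked custom Agilent array in buffer with 50 µM zinc acetate.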
row,Sequence,binding signal
1,TGGTTTTGTGAATGCAGTCATCATATAATAAATAAACGTGCGGAGTCACCTAGTGCAG,3450 fluorescence intensity (a.u.)
2,ATGGTTCTGATGTCATTGATAGATTTGAGAGAACATGTACCGGAGTCACCTAGTGCAG,5100 fluorescence intensity (a.u.)
3,CTCTCGTCCTCGTCCGCTTCCAGATTCAGATCCACCCATCCGGAGTCACCTAGTGCAG,3290 fluorescence intensity (a.u.)
4,GAGCAGGGCGCGACGTGACGGTGGTGGAGTGGCACGACAGCGGAGTCACCTAGTGCAG,3610 fluorescence intensity (a.u.)
5,ATTTGGGATGTCTTTATCTCATCCAATTAATCCACGGATACGGAGTCACCTAGTGCAG,49200 fluorescence intensity (a.u.)
6,ATCTCAACAATCAATCGAATTAGACAAACAACTCATCAGGCGGAGTCACCTAGTGCAG,3460 fluorescence intensity (a.u.)
7,GGCGGCGATCGTCCCCGTCAACGACGACGACGACGATGATCGGAGTCACCTAGTGCAG,4120 fluorescence intensity (a.u.)
8,TGAATTACTACCGTGTACTCCGATCTCTCTCTGGATATACCGGAGTCACCTAGTGCAG,3440 fluorescence intensity (a.u.)
9,ATTTCTCGACTTGCCTGAGATTCAGTTCTCGGTGGGTGATCGGAGTCACCTAGTGCAG,17300 fluorescence intensity (a.u.)
10,CCTCCACCTCGCCGCCGCCGCTGCTCGCGACCGATCTTCACGGAGTCACCTAGTGCAG,3340 fluorescence intensity (a.u.)
11,GCCCGCCCACCCACGTGGGCTCCACGTGTCGCTTCTCCCGCGGAGTCACCTAGTGCAG,36200 fluorescence intensity (a.u.)
12,TGCATCGACGCCACAACAGCCGACAGATGGGAGATGTTGACGGAGTCACCTAGTGCAG,3250 fluorescence intensity (a.u.)
13,TGAATTAAATAATGTGCCATATAATCATCTTTTAGCTGCTCGGAGTCACCTAGTGCAG,3740 fluorescence intensity (a.u.)
14,CCAAACCCCACGCACGCCGCGTCGCCGCCTCCTCCTCTCCCGGAGTCACCTAGTGCAG,3670 fluorescence intensity (a.u.)
15,GATTAATTACCTACCTGCTTACGTCCTCCGTGCTTAAGCACGGAGTCACCTAGTGCAG,3370 fluorescence intensity (a.u.)
16,GTTGGGGCGCCTCTGGGGCTGTCCACGTCGGATAGCTACACGGAGTCACCTAGTGCAG,20700 fluorescence intensity (a.u.)
17,CCAAATTCAATGCCACATATACAGATCACGCAACATTTTACGGAGTCACCTAGTGCAG,4660 fluorescence intensity (a.u.)
18,CTCAACAGCAACAGCAACAACACACTTACCAAATTTGTGTCGGAGTCACCTAGTGCAG,3620 fluorescence intensity (a.u.)
19,GGCCACCTGGCCTCTCCTCAGCAACAGCTCATATTGTTTGCGGAGTCACCTAGTGCAG,3260 fluorescence intensity (a.u.)
20,ATGTAATTTGTTTTCTTATTAGATTACGTTTAATATTTTACGGAGTCACCTAGTGCAG,3160 fluorescence intensity (a.u.)
21,CCAAGTAGGGGTCATTTTCTTCAGGTATCAGCTAAAACGGCGGAGTCACCTAGTGCAG,3710 fluorescence intensity (a.u.)

row,Sequence,binding signal
1,TCTTCGTCGCGTCATGCGCGCCCGGCCACGTTTTCCTCACCGGAGTCACCTAGTGCAG,8800 fluorescence intensity (a.u.)
2,CGGTAGGCCAATAGCTGTCGTCTTGCCAGATCTTTATGTCCGGAGTCACCTAGTGCAG,3170 fluorescence intensity (a.u.)
3,TTAATGCAGAATGACGCAGGCGTCCCTCATGTCTCTGGCGCGGAGTCACCTAGTGCAG,5200 fluorescence intensity (a.u.)
4,TCCTTACCCGTCATGTAGTAATGGGTATACCCACGGGCACCGGAGTCACCTAGTGCAG,3680 fluorescence intensity (a.u.)
5,ACTGTTTGCCCCGTCAGGCCGGCCGCGTGGGCCCCGCACCCGGAGTCACCTAGTGCAG,5380 fluorescence intensity (a.u.)
6,TATTTGTTGGATCTTTCTAATTTCAACCATGACGAGAGCCCGGAGTCACCTAGTGCAG,3290 fluorescence intensity (a.u.)
7,CGCCGCCGCCGCCCTTCTCTTCCTCCTCCGATTGGGTTGGCGGAGTCACCTAGTGCAG,3390 fluorescence intensity (a.u.)
8,TCCGCCCGCTCGATCGATCGAAGTCGGCGTCGCTCGCCTCCGGAGTCACCTAGTGCAG,36400 fluorescence intensity (a.u.)
9,ATTAGATCGTCGATGGAGATGACGATGTCGTCGGCGGCGACGGAGTCACCTAGTGCAG,3160 fluorescence intensity (a.u.)
10,TAATGGTGTGTCATCTAGATCCCTAAACTCTCAAAATGCACGGAGTCACCTAGTGCAG,3560 fluorescence intensity (a.u.)
11,GCCAGCGAAGATGGAGAGCGTCGCCTTGCGGGCCCCACGGCGGAGTCACCTAGTGCAG,8140 fluorescence intensity (a.u.)
12,ACCTCTGTCGTCATACTTGATCGGTTGATCTGGCAATTTCCGGAGTCACCTAGTGCAG,4810 fluorescence intensity (a.u.)
13,GATAATGAGAGGTTGAACACAATGACTCACCAACTCGAGGCGGAGTCACCTAGTGCAG,11900 fluorescence intensity (a.u.)
14,CCTCGCGCGGGCCGTCCGTTCCACGCGCCCATCCACTCACCGGAGTCACCTAGTGCAG,28400 fluorescence intensity (a.u.)
15,TACTAGTTCAACATTCGATTTGACATGGCTTAATCCCTGTCGGAGTCACCTAGTGCAG,3480 fluorescence intensity (a.u.)
16,TACGCAAAATAATGTGTTCTACACTAGGATGTCTGAGTTTCGGAGTCACCTAGTGCAG,19500 fluorescence intensity (a.u.)
17,CGCGCCGAGCGGGTCCGCTTGGTGGAGGACGACGTGGAGGCGGAGTCACCTAGTGCAG,4920 fluorescence intensity (a.u.)
18,TCGATGACACGTGGGGCCAGAAACCCTCGTGGTCCATACGCGGAGTCACCTAGTGCAG,12600 fluorescence intensity (a.u.)
19,CGCAGCCACGTGCATTCTTACGTACTCATCGGCGCATCGGCGGAGTCACCTAGTGCAG,8170 fluorescence intensity (a.u.)
20,GATCCAGATTACTGTGATGTTTTAATCTCCACTATAAACTCGGAGTCACCTAGTGCAG,3220 fluorescence intensity (a.u.)
21,GAGATGGTACCGTGCCACGACGTCGTCCCGTCCCACCTCGCGGAGTCACCTAGTGCAG,4680 fluorescence intensity (a.u.)

# Part of the list above, tab-delimited:
row	Sequence	binding signal
1	TCTTCGTCGCGTCATGCGCGCCCGGCCACGTTTTCCTCACCGGAGTCACCTAGTGCAG	8800 fluorescence intensity (a.u.)
4	TCCTTACCCGTCATGTAGTAATGGGTATACCCACGGGCACCGGAGTCACCTAGTGCAG	3680 fluorescence intensity (a.u.)
6	TATTTGTTGGATCTTTCTAATTTCAACCATGACGAGAGCCCGGAGTCACCTAGTGCAG	3290 fluorescence intensity (a.u.)
7	CGCCGCCGCCGCCCTTCTCTTCCTCCTCCGATTGGGTTGGCGGAGTCACCTAGTGCAG	3390 fluorescence intensity (a.u.)
8	TCCGCCCGCTCGATCGATCGAAGTCGGCGTCGCTCGCCTCCGGAGTCACCTAGTGCAG	36400 fluorescence intensity (a.u.)
14	CCTCGCGCGGGCCGTCCGTTCCACGCGCCCATCCACTCACCGGAGTCACCTAGTGCAG	28400 fluorescence intensity (a.u.)
17	CGCGCCGAGCGGGTCCGCTTGGTGGAGGACGACGTGGAGGCGGAGTCACCTAGTGCAG	4920 fluorescence intensity (a.u.)
19	CGCAGCCACGTGCATTCTTACGTACTCATCGGCGCATCGGCGGAGTCACCTAGTGCAG	8170 fluorescence intensity (a.u.)
